These are yes or no findings as the source states them, for the method shown. Some binding calls cover weakened binding; strength is not graded here.
Columns and labels:
Settings in all cases: remark: other sources report otherwise
[1] = target: chicken lysozyme (chicken), P00698; test: column of lysozyme immobilised on Eupergit, A280 of bypass and flow through, release with CAPS buffer pH 11
[2] = target: chicken lysozyme (chicken), P00698; test: column of iMab100 immobilised on Eupergit, A280 of bypass and flow through, release with CAPS buffer pH 11
[3] = target: chicken lysozyme (chicken), P00698; test: ELISA on lysozyme against ELK control

Measured: binding

B1: iMab100 (designed binder, not shown: small tags and cut ends)
chain: NVKLVEKGGNFVENDDDLKLTCRAEGYTIGPYCMGWFRQAPNDDSTNVATINMGGGITYYGDSVKERFDIRRDNASNTVTLSMDDLQPEDSAEYNCAGDSTIYASYYECGHGLSTGGYGYDSHYRGQGTDVTVSS
binds: [1] | [2] | [3]

Reference: patent US20060140889A1
